Reference: patent publication US20020028496A1, “Method for producing telomerase reverse transcriptase” (priority 2000, published 2002)
At least one structure is not confirmed: it was looked up by name or label, or the drawing left a doubt.

Amino acid sequences for entries named in this document (tags omitted). A change or cut given only in a name is not applied to a line headed by its entry.
UniProt O14746: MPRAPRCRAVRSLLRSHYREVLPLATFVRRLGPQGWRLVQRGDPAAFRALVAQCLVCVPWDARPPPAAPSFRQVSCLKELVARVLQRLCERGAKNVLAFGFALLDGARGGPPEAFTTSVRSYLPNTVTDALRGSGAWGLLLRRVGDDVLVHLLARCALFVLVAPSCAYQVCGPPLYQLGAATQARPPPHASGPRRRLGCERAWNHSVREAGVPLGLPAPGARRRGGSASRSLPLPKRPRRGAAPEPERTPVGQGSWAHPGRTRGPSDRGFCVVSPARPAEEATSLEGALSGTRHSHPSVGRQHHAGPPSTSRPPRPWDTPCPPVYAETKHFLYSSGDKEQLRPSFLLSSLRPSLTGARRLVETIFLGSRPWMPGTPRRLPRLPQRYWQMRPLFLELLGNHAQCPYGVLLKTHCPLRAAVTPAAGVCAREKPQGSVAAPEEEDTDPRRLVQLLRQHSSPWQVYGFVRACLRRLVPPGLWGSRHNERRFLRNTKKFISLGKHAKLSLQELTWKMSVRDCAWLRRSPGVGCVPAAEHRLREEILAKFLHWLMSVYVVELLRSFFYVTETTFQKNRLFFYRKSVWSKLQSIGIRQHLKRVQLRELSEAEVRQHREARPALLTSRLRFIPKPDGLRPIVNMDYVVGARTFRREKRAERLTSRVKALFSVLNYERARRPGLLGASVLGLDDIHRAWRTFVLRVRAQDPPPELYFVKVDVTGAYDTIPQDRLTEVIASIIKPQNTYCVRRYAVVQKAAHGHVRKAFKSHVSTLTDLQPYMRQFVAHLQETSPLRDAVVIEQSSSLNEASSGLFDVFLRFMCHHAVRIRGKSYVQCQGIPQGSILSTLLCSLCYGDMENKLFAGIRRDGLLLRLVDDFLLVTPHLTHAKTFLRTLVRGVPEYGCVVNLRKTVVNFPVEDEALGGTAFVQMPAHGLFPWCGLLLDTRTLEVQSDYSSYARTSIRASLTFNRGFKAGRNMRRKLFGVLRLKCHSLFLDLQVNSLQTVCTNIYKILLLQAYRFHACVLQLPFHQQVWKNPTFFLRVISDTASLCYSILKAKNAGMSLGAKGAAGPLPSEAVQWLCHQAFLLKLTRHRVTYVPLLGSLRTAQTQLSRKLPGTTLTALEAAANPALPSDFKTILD

Columns and labels:
[1] = tested on: telomerase (FLAG-hTERT and hTR) stimulated by TIG3 cell extracts; assay: Effect of Hsp90 inhibitor on reconstituted telomerase activity stimulated by TIG3 cell extract, TRAP and TRAP ELISA; format: biochemical, human; settings: GA at higher concentrations; TIG3 extracts 10^4 cells, FLAG-hTERT 5 ng, hTR 9 ng
[2] = molecular target: T1, telomerase reconstituted from FLAG-hTERT and hTR (Homo sapiens, UniProt O14746); assay: Effect of Hsp90 inhibitor on telomerase activity reconstituted in vitro without extract, TRAP and TRAP ELISA; format: biochemical; settings: up to 100 μg/mL; added before or after reconstitution of FLAG-hTERT and hTR
T1 construct: made in house; host or cells: High5 (Trichoplusia ni) insect cells infected with recombinant baculovirus BVKM-FLAG-hTERT

COC1=C2C[C@@H](C)C[C@H](OC)[C@H](O)[C@@H](C)/C=C(\C)[C@H](OC(N)=O)[C@@H](OC)/C=C\C=C(/C)C(=O)NC(=CC1=O)C2=O [Geldanamycin]
inhibition of telomerase activities stimulated by TIG3 cell extracts [1]: slightly inhibit
inhibition of reconstituted telomerase activity [2]: not inhibited at all
